Assay results published in paper PMC10372082.
These are yes or no findings as the source states them, for the method shown. Binding seen in cells or lysates may run through a third protein. Some results given as binding are weak or reduced against the parent protein; the word gives no strength.

Chains of the proteins cited; added tags and fusions are not shown.
UniProt Q92769: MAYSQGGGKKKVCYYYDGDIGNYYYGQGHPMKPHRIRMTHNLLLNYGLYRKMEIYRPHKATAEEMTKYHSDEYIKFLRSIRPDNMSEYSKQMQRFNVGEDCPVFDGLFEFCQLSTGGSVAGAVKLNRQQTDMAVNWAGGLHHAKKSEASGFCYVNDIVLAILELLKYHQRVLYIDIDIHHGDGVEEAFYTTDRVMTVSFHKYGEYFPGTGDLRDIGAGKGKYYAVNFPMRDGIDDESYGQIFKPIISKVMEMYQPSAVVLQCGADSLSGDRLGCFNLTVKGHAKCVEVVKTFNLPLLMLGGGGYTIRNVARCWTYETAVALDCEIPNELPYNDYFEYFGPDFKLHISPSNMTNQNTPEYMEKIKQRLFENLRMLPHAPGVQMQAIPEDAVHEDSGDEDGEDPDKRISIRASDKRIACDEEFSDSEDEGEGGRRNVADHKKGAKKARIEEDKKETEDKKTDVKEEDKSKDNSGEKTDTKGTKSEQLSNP
UniProt P25490: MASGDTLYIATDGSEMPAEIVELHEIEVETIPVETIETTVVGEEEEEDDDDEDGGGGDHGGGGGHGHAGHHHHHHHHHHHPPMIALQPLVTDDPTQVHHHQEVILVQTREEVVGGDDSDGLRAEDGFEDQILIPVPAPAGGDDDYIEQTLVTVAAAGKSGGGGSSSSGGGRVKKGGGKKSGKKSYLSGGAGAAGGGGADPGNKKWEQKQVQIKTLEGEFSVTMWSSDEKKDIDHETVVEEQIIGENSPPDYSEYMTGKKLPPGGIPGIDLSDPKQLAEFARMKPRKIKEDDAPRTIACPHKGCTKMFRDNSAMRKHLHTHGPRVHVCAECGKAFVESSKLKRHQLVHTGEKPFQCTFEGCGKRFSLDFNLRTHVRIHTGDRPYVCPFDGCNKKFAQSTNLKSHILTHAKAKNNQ

Molecular target: Histone deacetylase 2 (HDAC2) (human (endogenous in A549)) (UniProt Q92769)
Experiment: co-IP; endogenous proteins in A549 lysate (RIPA buffer, 1 mM PMSF); lysate pre-cleared with protein-A/G sepharose; IP with anti-HDAC2 or anti-YY1 at 4 °C for 8-12 h, normal IgG as negative control; washed with PBS; immunoblot

- binding: binds
Substance: Yin Yang 1 (YY-1) (from UniProt P25490 1-414)
